According to article PMC8042123:
No constants are given. Whether binding was seen depends on the method and setting. Binding seen in cells or lysates may run through a third protein. A yes stands for co-enrichment or nearness to the bait. Other partners may have been found.

Amino acid sequences for entries named in this document (tags omitted). A change or cut given only in a name is not applied to a line headed by its entry.
UniProt Q96524: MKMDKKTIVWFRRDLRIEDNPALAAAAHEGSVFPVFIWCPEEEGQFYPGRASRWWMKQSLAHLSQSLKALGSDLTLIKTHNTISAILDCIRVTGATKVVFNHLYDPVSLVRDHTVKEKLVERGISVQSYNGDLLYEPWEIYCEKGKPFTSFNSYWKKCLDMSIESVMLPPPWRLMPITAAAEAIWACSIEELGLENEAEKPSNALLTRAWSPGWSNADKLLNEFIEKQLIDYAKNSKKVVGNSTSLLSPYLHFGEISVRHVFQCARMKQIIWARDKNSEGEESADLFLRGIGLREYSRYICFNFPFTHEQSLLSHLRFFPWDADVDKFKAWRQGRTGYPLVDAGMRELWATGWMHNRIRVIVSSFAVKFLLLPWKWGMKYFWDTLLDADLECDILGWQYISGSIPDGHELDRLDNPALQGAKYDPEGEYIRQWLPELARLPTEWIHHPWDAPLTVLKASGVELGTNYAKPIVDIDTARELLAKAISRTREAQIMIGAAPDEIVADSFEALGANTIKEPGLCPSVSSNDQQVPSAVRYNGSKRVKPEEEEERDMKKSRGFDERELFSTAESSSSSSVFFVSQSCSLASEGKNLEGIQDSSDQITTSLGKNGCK
UniProt O82343: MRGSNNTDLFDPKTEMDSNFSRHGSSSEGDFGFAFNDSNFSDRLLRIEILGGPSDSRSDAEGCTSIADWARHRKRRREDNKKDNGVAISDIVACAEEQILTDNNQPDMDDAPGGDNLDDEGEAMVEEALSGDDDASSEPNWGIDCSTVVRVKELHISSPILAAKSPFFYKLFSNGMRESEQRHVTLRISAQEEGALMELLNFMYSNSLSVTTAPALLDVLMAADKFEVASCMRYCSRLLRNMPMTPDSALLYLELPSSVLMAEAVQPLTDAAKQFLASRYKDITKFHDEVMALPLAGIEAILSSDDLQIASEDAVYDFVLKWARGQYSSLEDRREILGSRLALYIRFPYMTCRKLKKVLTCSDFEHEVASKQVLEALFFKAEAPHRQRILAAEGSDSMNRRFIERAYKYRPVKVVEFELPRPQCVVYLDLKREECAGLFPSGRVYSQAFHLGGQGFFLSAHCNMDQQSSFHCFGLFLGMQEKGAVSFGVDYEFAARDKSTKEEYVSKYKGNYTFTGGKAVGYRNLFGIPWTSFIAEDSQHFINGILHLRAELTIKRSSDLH

Molecular target: GFP-CRY2 (Arabidopsis thaliana) (UniProt Q96524)
Assay: affinity purification with mass spectrometry; IP-MS of CRY2 complexomes from transgenic Arabidopsis plants overexpressing GFP-CRY2; blue light against dark

With “LRB1 (Light-Response Bric-a-Brack/Tramtrack/Broad 1) (from UniProt O82343)” the binding was “binds”.
